Data: PubChem BioAssay AID1671190 (National Center for Advancing Translational Sciences (NCATS), 2021)
Where “and” joins values, the source holds several entries; their conditions need not be identical. Equal values may be shown once. About 6,100 (1.1%) of roughly 580,000 compounds were called active. The inconclusive results got no clear call from the source; some entries with a clear call stand among them for comparison. The call rests on the fitted dose curve; in most records, active means well fitted inhibition curve with a large enough effect; inconclusive means small, poorly fitted or top-dose-only effect, or another doubt; inactive means no such curve, though single readings can be large or run the other way. Potencies beside an inconclusive call are fits to weak or partial responses and may not hold up.

Amino acid sequences for entries named in this document (tags omitted). A change or cut given only in a name is not applied to a line headed by its entry.
UniProt P18054: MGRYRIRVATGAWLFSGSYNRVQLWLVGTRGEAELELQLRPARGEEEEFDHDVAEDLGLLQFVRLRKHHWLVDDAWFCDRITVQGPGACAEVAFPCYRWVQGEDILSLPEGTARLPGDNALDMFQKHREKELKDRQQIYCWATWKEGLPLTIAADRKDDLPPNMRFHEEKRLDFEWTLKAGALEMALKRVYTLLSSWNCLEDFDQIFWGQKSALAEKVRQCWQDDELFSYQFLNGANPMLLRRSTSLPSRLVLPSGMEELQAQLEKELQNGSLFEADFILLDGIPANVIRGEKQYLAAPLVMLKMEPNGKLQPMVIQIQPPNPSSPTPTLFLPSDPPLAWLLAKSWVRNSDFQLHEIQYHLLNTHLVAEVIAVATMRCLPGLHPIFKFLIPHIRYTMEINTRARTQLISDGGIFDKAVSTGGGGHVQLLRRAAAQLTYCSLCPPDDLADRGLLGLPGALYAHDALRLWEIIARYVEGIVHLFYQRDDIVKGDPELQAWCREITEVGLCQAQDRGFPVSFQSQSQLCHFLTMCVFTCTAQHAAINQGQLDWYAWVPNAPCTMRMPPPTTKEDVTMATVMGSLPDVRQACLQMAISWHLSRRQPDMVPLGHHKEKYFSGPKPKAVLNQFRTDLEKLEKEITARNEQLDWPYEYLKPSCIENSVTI

molecular target: Polyunsaturated fatty acid lipoxygenase ALOX12 (Homo sapiens) (UniProt P18054); test: Primary qHTS assay for inhibitors of human arachidonate 12S-lipoxygenase (ALOX12): Round 2; settings: purified 12hLO, xylenol orange hydroperoxide absorbance; activity change, negative = inhibition: at 108 µM (top of the series) unless noted
How it was run: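 Purified human 12hLO at 150 nM in 25 mM Hepes, 0.01% Triton X-100, pH 7.0, preincubated 15 min at room temperature with compound. Reaction started with 40 uM arachidonic acid, 30 min at room temperature. Hydroperoxide measured by Fe-xylenol orange, 573/405 nm absorbance ratio.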
On the % scale 0 is the no-effect control and ±100 the full control effect; potency means the concentration at half of the fitted maximal effect.

Compound	activity change, negative = inhibition	Potency
CC(C)CN(Cc1ccc(F)cc1)Cc1cc(=O)n2c3c(sc2n1)CCCC3	inactive: -21.5%	–
CC1=CC(C)(C)Nc2ccc(C)cc21	–	inconclusive: 0.355 µM [inhibitor, full curve, poor fit]
O=C(O)C1CC2(CCN(C(=O)c3ccccc3N3CCCC3)CC2)CN1 (configuration not stated)	inactive: 58.5%	–
COc1ccc(CC(=O)Nc2c(C(=O)N3CCN(c4ncccn4)CC3)oc3ccccc23)cc1OC	inactive: -26%	–
O=C(OCc1cc(=O)c(OC(=O)c2ccccc2)co1)c1ccccc1	–	inconclusive: 50.1 µM [inhibitor, partial curve, poor fit]
O=C(NCCCN1CCCC1=O)c1nc(-c2ccc3[nH]ccc3c2)no1	inactive: -13.5%	–
N#Cc1cccc(-c2cn3c(n2)N(C(=O)c2ccco2)CCC3)c1	inactive: 48.6%	–
COc1ccccc1C(=O)Nc1ccc(S(=O)(=O)Nc2cnc3ccccc3n2)cc1	–	inconclusive: 0.631 µM [inhibitor, full curve, poor fit]
COc1ccc(OCCOC(=O)Cn2cnc3c2c(=O)n(C)c(=O)n3C)cc1	inactive: 21.2%	–
Cc1ccc(C(=O)CSC2=C(C#N)C(c3ccco3)C3=C(CCCC3=O)N2)cc1 (configuration not stated)	–	inconclusive: 44.7 µM [inhibitor, partial curve, poor fit]
CCCCNC(=S)Nc1cc(C)ccc1F	–	inconclusive: 79.4 µM [inhibitor, partial curve, poor fit]
Cc1ccc2nc(CC(C)(C)CC(=O)O)c[n+]([O-])c2c1	–	inconclusive: 39.8 µM [inhibitor, partial curve, poor fit]
C=CCOC(=O)C1=C[C@H](c2ccc(C(F)(F)F)cc2)C[C@H](OCCCCO)O1	–	inconclusive: 44.7 µM [inhibitor, partial curve, poor fit]
Cc1ccc2nc(CN(C)C(=O)[C@@H](Cc3ccccc3)NC(=O)[C@H]3O[C@@H](n4cnc(C(N)=O)n4)[C@H](O)[C@@H]3O)[nH]c2c1	inactive: -2.63%	–
COc1cc([N+](=O)[O-])ccc1NC(=S)NC(=O)CC(C)(C)C	inactive: -0.12%	–
C#CCOCCOCCOCCNc1nc(N2CCN(C(=O)Cn3cc(CCO)nn3)CC2)nc(N2CCN(C(=O)[C@H](Cc3ccc(O)cc3)n3cc(CCO)nn3)CC2)n1	–	inconclusive: 50.1 µM [inhibitor, partial curve, poor fit]
CC(C)CNC(=O)c1cccc2c1-c1ccccc1C2=O	inactive: 15.4%	–
COc1ccc(C2NC(=O)N(CCCC(=O)O)C(C)=C2C(=O)OCc2ccccc2)cc1 (configuration not stated)	inactive: 9.73%	–
COc1ccc(Nc2nc3ccc(C)cc3nc2-n2nc(C)cc2C)cc1	inactive: -4.11%	–
Cc1ccc2nc3c(cc(C(=O)NCc4ccco4)c(=N)n3C3CCCC3)c(=O)n2c1	–	inconclusive: 141 µM [inhibitor, partial curve, poor fit]
Cc1ccc(S(=O)(=O)N2[C@@H](c3ccc(C(C)(C)C)cc3)C(C(=O)O)=CC[C@H]2c2cccc(Cl)c2)cc1	inactive: -83.3%	–
Cc1cc(Cl)cc(Cl)c1OCCN1CCCC1	–	inconclusive: 2 µM [inhibitor, full curve]
CSc1ccc2c(c1)C(N1CCN(C)CC1)Cc1ccccc1S2 (configuration not stated)	–	inactive and inconclusive: 50.1 µM [inhibitor, partial curve, poor fit]

Compound	activity change, negative = inhibition	Potency
COc1cccc(N2CCN(c3ccc([N+](=O)[O-])cn3)CC2)c1	inactive: -6.44%	–
CS(=O)(=O)N1CCC(OC2CCN(C(=O)NCCc3ccccc3)CC2)CC1	inactive: 9.27%	–
COc1ccccc1OCc1cc(C(=O)NCCN2CCCC(O)C2)no1 (configuration not stated)	–	inconclusive: 28.2 µM [inhibitor, partial curve, poor fit]
c1ccc(-c2cc3nc(NCc4cccs4)nc(NCc4ccc5occc5c4)c3s2)cc1	–	inconclusive: 70.8 µM [inhibitor, partial curve, poor fit]
Cc1n[nH]c(C)c1CCCCOc1ccc([N+](=O)[O-])cc1	inactive: -15.8%	–
CC(C)(C)C(=O)Oc1ccc(S(=O)(=O)Nc2ccccc2C(=O)NCC(=O)O)cc1	–	inconclusive: 2.73 µM [inhibitor, full curve, poor fit]
COCCNC(=O)Cc1c(C)c2c(cc(C)c3c(C(C)(C)C)coc32)oc1=O	inactive: 43.3%	–
CCCCN1C(=O)/C(=C/C=C2/CC(C)(C)CN2C)SC1=S	–	inconclusive: 112 µM [inhibitor, partial curve, poor fit]
S=c1[nH]nc(-c2cc(-c3ccccc3)n[nH]2)n1/N=C/c1c(Cl)cccc1Cl	–	inconclusive: 44.7 µM [inhibitor, partial curve, poor fit]
COC(=O)c1c(NC(=O)Cc2cccs2)sc2c1CCC(C)C2 (configuration not stated)	–	inconclusive: 39.8 µM [inhibitor, partial curve, poor fit]
Cc1cc(C)cc(NS(=O)(=O)c2ccc3c(c2)CCCN3C(=O)C2CCC2)c1	inactive: 10.1%	–
COCC(=O)Nc1ccc([C@@H](O)[C@H]2COCC(=O)N2Cc2ccccc2F)cc1	inactive: 51% [at 176 µM]	–
CCC(C)c1ccc(NC(=O)COC(=O)c2nn(C)c(=O)c3ccccc23)cc1 (configuration not stated)	–	inconclusive: 0.282 µM [inhibitor, single point]
COc1cccc(-n2nnnc2N2CCN(C(=O)Nc3ccc(C)c(F)c3)CC2)c1	–	inconclusive: 8.91 µM [inhibitor, partial curve, poor fit]
NC(c1csc(NC(=O)Nc2ccc(OC(F)(F)F)cc2)n1)C1CCCCC1 (configuration not stated)	–	inconclusive: 50.1 µM [inhibitor, partial curve, poor fit]
Cc1ccccc1NC(=O)Cc1nc(COC(=O)c2nc(Cl)ccc2Cl)cs1	–	inconclusive: 112 µM [inhibitor, single point]
CCCCN(C(=O)c1ccc(-c2ccc(Cl)cc2)o1)c1c(N)n(CCCC)c(=O)[nH]c1=O	–	inconclusive: 20 µM [inhibitor, partial curve, poor fit]
CCc1nc2c(OCC(=O)c3ccc(Cl)cc3Cl)cccn2c1N(C)C(=O)c1cccs1	–	inconclusive: 50.1 µM [inhibitor, partial curve]
COc1ccc(-c2ccc3ncc(Nc4cccc(F)c4)n3n2)cc1OC	–	inconclusive: 39.8 µM [inhibitor, full curve]
Cc1c(C(=O)OCCOc2c(Cl)cc(Cl)cc2Cl)sc(=S)n1C	inactive: -5.27%	–
CC1CCC(=C(C#N)C(=O)NC2CC2)CC1 (configuration not stated)	–	inconclusive: 39.8 µM [inhibitor, single point]
COc1ccc(OC)c(C2CC(=O)N3CN(c4ccc(C)c(Cl)c4)CSC3=C2C#N)c1 (configuration not stated)	–	inconclusive: 3.55 µM [inhibitor, full curve, poor fit]
COc1ccc2[nH]cc(C(=O)CCl)c2c1	–	inconclusive: 56.2 µM [inhibitor, partial curve, poor fit]

Shown with each value named: entries from further up
CCCCNC(=S)Nc1cc(C)ccc1F
  Potency: inconclusive: 79.4 µM [inhibitor, partial curve, poor fit]
Cc1ccc2nc(CC(C)(C)CC(=O)O)c[n+]([O-])c2c1
  Potency: inconclusive: 39.8 µM [inhibitor, partial curve, poor fit]
C=CCOC(=O)C1=C[C@H](c2ccc(C(F)(F)F)cc2)C[C@H](OCCCCO)O1
  Potency: inconclusive: 44.7 µM [inhibitor, partial curve, poor fit]
Cc1ccc2nc(CN(C)C(=O)[C@@H](Cc3ccccc3)NC(=O)[C@H]3O[C@@H](n4cnc(C(N)=O)n4)[C@H](O)[C@@H]3O)[nH]c2c1
  activity change, negative = inhibition: inactive: -2.63%

(continued)

Compound	activity change, negative = inhibition	Potency
CCN(CC)CCN(Cc1cc2ccc(C)cc2[nH]c1=O)C(=O)Nc1ccc(Cl)cc1	–	inconclusive: 100 µM [inhibitor, single point]
Cn1cnc([N+](=O)[O-])c1Oc1ccccc1	inactive: 8.27%	–
COc1ccc(-n2cnc3cc([N+](=O)[O-])ccc32)cc1	inactive: -14.9%	–
CN(Cc1ccccc1)S(=O)(=O)c1cc2c3c(c1)CCN3C(=O)CC2	–	inconclusive: 35.5 µM [inhibitor, partial curve, poor fit]
CC(=O)Nc1ccc(S(=O)(=O)NCCC(=O)NCC2COc3ccccc3O2)cc1 (configuration not stated)	–	inconclusive: 35.5 µM [inhibitor, single point]
Cn1cc(/C=C(\NC(=O)c2ccco2)C(=O)NCCO)c2ccccc21	inactive: 0.907%	–
CCc1ccc(C2CC(=O)NC3=C2C(=O)CC(c2ccc(OC)cc2)C3)cc1 (configuration not stated)	–	inconclusive: 100 µM [inhibitor, single point]
CCC(C)c1ccc(-c2c(C)sc(N)c2C#N)cc1 (configuration not stated)	–	inconclusive: 39.8 µM [inhibitor, partial curve, poor fit]
COc1ccccc1N1CCN(S(=O)(=O)c2ccc(NC(C)=O)cc2)CC1	inactive: 12.6%	–
CC(C)(C)Cc1c(-c2ccc(C#N)cc2)nc2c(Cl)cc(C(F)(F)F)cn12	inactive: -19.9%	–
Oc1ccccc1CN1CCC(C(O)(c2ccccc2)c2ccccc2)CC1	inactive: -27.4%	–
Cc1nc2ccccc2c(C(=O)O)c1C	–	inconclusive: 10 µM [inhibitor, full curve]
O=C(Nc1ccc(N2CCOCC2)cc1)C1CCN(c2cn[nH]c(=O)c2)C1 (configuration not stated)	inactive: 43.2%	–
O=C(Cn1ccccc1=O)Nc1ccc(F)cc1Cl	–	inconclusive: 1.12 µM [inhibitor, full curve, poor fit]
O=C(NNC(=O)c1ccc(O)c(Cl)c1)c1cccc(S(=O)(=O)N2CCOCC2)c1	–	inconclusive: 100 µM [inhibitor, single point]
Cc1cc(C)c(S(=O)(=O)c2ccccc2)c(OC(=O)c2cc(F)c(F)cc2Cl)n1	–	inconclusive: 12.6 µM [inhibitor, partial curve, poor fit]
CCCO	inactive: -11.6% [at 176 µM]	–
Cc1ccc(S(=O)(=O)N2CCOC2CNC(=O)C(=O)NCCCc2ccccc2)cc1 (configuration not stated)	–	inconclusive: 39.8 µM [inhibitor, single point]
C=CCOc1ccc(C(=O)Nc2ccccc2C(=O)NCc2cccnc2)cc1	–	inconclusive: 50.1 µM [inhibitor, partial curve, poor fit]
COc1ccc(/C(O)=C2/C(=O)C(=O)N(CCN(C)C)C2c2ccc(OC)c(OC)c2)c(C)c1 (configuration not stated)	–	inconclusive: 15.8 µM [inhibitor, full curve]
Cn1c(=O)c2c(nc(NCc3ccc4c(c3)OCO4)n2Cc2ccccc2)n(C)c1=O	–	inconclusive: 12.6 µM [inhibitor, partial curve, poor fit]
